# In US9737495B2, “Process for obtaining purified pterostilbene and methods of use thereof” (Indus Biotech Private Limited, priority 2009, dated 2017):
# At least one compound was matched to its structure with a doubt left.
# Legend:
# 3-NP induced HD in rats [1] = test: 3-NP induced HD in rats: brain wet weight; type: in vivo, Wistar rats; conditions: 30 mg/kg p.o.; 3-NP reduced weight of brain from 1.675 to 1.323
# Experimental: (§1) 3-NP (20 mg/kg i.p., daily in 2 divided doses) was administered to all the Wistar rats of weight range 250-300 g. in two divided doses at 12 hr interval for 9-11 days until disease is induced (acutely ill). It took 12 days to completely induce the disease symptoms. 3-NP was diluted with water and the pH will be adjusted upto 7.4 with NaOH. It was administered intraperitoneally (i.p.) at a dose of 10 mg/kg every 12 hrs (8:00 am and 8:00 pm) for 12 days (total daily dose 20 mg/kg). The observations were done on day 0, 7, 9, 11 and 13. The test compound was administered for the same period p.o. (per oral) one hour before 3-NP injection (at 7:00 AM daily) at dose of 30 mg/kg, p.o. The experimental groups were as follows: 1) Healthy Control: No treatment 2) HD control (3-NP+cyclodextrin) 3) TEST COMPOUND (30 mg/kg, p.o. daily complexed with cyclodextrin) treated.
# On day 13, the brains of the rats were dissected out and cleaned. The wet weight of the brains were recorded for each rat. The results are also graphically represented in FIG. 3
# On day 13, the brains of the rats were dissected out and cleaned. The wet weight of the brains were recorded for each rat.
# 3-NP induced HD in rats [2] = test: 3-NP induced HD in rats: squares crossed in open field test; type: in vivo, Wistar rats; conditions: 30 mg/kg p.o. + 3-NP
# Experimental: as §1
structure (smiles),measurement,setting,value
"COc1cc(/C=C/c2ccc(O)cc2)cc(OC)c1 [Test compound, pterostilbene]",effect on 3-NP induced weight loss of brain (in words),3-NP induced HD in rats [1],reversed this weight loss of brain
same,effect on number of squares crossed in open field test (in words),3-NP induced HD in rats [2],significant increase in number of squares crossed
